Measurements reported in PubChem BioAssay AID1259254 (NCATS, 2017).
The whole screen tested about 59,000 reagents; this is an unselected part. Of all reagents, about 1,550 (2.6%) were called active. 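G2 share is only a proxy for re-replication; each gene was hit by three separate siRNAs, and active genes were retested.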 A number with no mark means an inactive call. Reagents against one gene are numbered here. Not all columns of the deposit are shown. Reagent sequences are not shown. The record does not give: the amount of reagent.

Purpose: 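Gene knock-downs that lead to re-replication, shown by excess G2 DNA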 (primary screen)
System: human HCT116 colorectal cancer cells
Knock-down reagent: single siRNA against human genes
Time to read-out: 3 days
Read-out: 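Imaged Hoechst DNA stain sorts each cell into a cycle phase by DNA amount; per plate, G2 fraction set to 0% for non-targeting and 100% for GMNN siRNA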
Reading the numbers: G2 robust z-score and G2 cells, % of GMNN control: higher = more G2 cells, more excess DNA replication
Call rule: 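An siRNA counts as active if its G2 robust z-score lies at least 5 MADs above the screen median; here such calls match roughly 38% of GMNN control or more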

gene symbol | reagent | G2 robust z-score | G2 cells, % of GMNN control
SULT2A1 | 1 | -0.501 | -0.557
SULT2A1 | 2 | -0.767 | -2.43
SULT2A1 | 3 | 3.06 | 24.5
EMILIN3 | 1 | 3.11 | 24.9
EMILIN3 | 2 | 2.41 | 19.9
EMILIN3 | 3 | 0.36 | 5.5
PALS2 | 1 | -0.552 | -0.918
PALS2 | 2 | -0.0558 | 2.57
PALS2 | 3 | 0.483 | 6.37
CCN6 | 1 | 0.553 | 6.86
CCN6 | 2 | -0.253 | 1.19
CCN6 | 3 | 2.69 | 21.9
TP53TG5 | 1 | 0.768 | 8.37
TP53TG5 | 2 | -0.923 | -3.53
TP53TG5 | 3 | -0.545 | -0.869
APOBR | 1 | -1.07 | -4.59
APOBR | 2 | -0.717 | -2.07
APOBR | 3 | -1.04 | -4.38
CLEC12B | 1 | 1.09 | 10.6
CLEC12B | 2 | 0.656 | 7.58
CLEC12B | 3 | -0.326 | 0.675
OR5AR1 | 1 | -0.522 | -0.706
OR5AR1 | 2 | -0.333 | 0.625
OR5AR1 | 3 | 0.779 | 8.45
ZNF529 | 1 | -0.479 | -0.405
ZNF529 | 2 | 0.195 | 4.34
ZNF529 | 3 | 0.00944 | 3.03
PGK1 | 1 | 0.121 | 3.82
PGK1 | 2 | 0.392 | 5.73
PGK1 | 3 | -0.355 | 0.469
CDH18 | 1 | -0.701 | -1.96
CDH18 | 2 | 1.86 | 16
CDH18 | 3 | -0.143 | 1.96
AUH | 1 | 2.83 | 22.9
AUH | 2 | 4.08 | 31.6
AUH | 3 | 0.492 | 6.43
HIBCH | 1 | 0.387 | 5.69
HIBCH | 2 | -0.0604 | 2.54
HIBCH | 3 | 2.6 | 21.2

12 entries already listed, arranged by “G2 robust z-score”, low to high.
gene symbol | reagent | G2 robust z-score | G2 cells, % of GMNN control
SULT2A1 | 2 | -0.767 | -2.43
PALS2 | 1 | -0.552 | -0.918
SULT2A1 | 1 | -0.501 | -0.557
CCN6 | 2 | -0.253 | 1.19
PALS2 | 2 | -0.0558 | 2.57
EMILIN3 | 3 | 0.36 | 5.5
PALS2 | 3 | 0.483 | 6.37
CCN6 | 1 | 0.553 | 6.86
EMILIN3 | 2 | 2.41 | 19.9
CCN6 | 3 | 2.69 | 21.9
SULT2A1 | 3 | 3.06 | 24.5
EMILIN3 | 1 | 3.11 | 24.9

Additional reagents follow:
gene symbol | reagent | G2 robust z-score | G2 cells, % of GMNN control
TYSND1 | 1 | -0.558 | -0.956
TYSND1 | 2 | 1.14 | 11
TYSND1 | 3 | 1.54 | 13.8
EIF4A1 | 1 | 1.62 | 14.4
EIF4A1 | 2 | 3.89 | 30.3
EIF4A1 | 3 | 0.674 | 7.71
ALPK1 | 1 | 0.497 | 6.46
ALPK1 | 2 | 0.229 | 4.58
ALPK1 | 3 | 1.1 | 10.7
LILRA2 | 1 | -0.397 | 0.174
LILRA2 | 2 | -0.451 | -0.205
LILRA2 | 3 | 1.57 | 14
PARP6 | 1 | -0.226 | 1.38
PARP6 | 2 | 2.09 | 17.7
PARP6 | 3 | 0.0788 | 3.52
CUEDC2 | 1 | 0.695 | 7.86
CUEDC2 | 2 | -0.645 | -1.57
CUEDC2 | 3 | 0.598 | 7.17
WFDC2 | 1 | -0.0615 | 2.53
WFDC2 | 2 | -0.283 | 0.977
WFDC2 | 3 | -1.41 | -6.99
GCGR | 1 | -0.377 | 0.315
GCGR | 2 | 2.14 | 18.1
GCGR | 3 | -0.923 | -3.53
ATP1A4 | 1 | -0.3 | 0.858
ATP1A4 | 2 | 0.0397 | 3.25
ATP1A4 | 3 | 0.157 | 4.08
GPM6A | 1 | 0.43 | 6
GPM6A | 2 | -1.14 | -5.03
GPM6A | 3 | 0.48 | 6.35
RPUSD2 | 1 | -0.506 | -0.59
RPUSD2 | 2 | 1.47 | 13.3
RPUSD2 | 3 | -0.5 | -0.55
CRCP | 1 | -0.126 | 2.08
CRCP | 2 | -1.34 | -6.44
CRCP | 3 | -1.12 | -4.92
SLC12A2 | 1 | -0.389 | 0.228
SLC12A2 | 2 | -0.67 | -1.74
SLC12A2 | 3 | -0.355 | 0.47
RNASE9 | 1 | -0.239 | 1.29
RNASE9 | 2 | 5.47 (active) | 41.4
RNASE9 | 3 | 2.84 | 23
CMAS | 1 | -0.573 | -1.06
CMAS | 2 | -0.453 | -0.216
CMAS | 3 | -0.762 | -2.4
CSNK1G3 | 1 | -1.06 | -4.46
CSNK1G3 | 2 | -1.08 | -4.63
CSNK1G3 | 3 | -0.653 | -1.63
